The record followed here is publication doi:10.1101/2023.06.14.544764.

These are yes or no findings as the source states them, for the method shown. In cells and extracts the contact can be indirect. These calls come from enrichment with a bait or labelling near it, and not all partners need be listed. Tags and fused reporters may be left off the sequences shown.

Test [1] concerns the target T1, PURA fused to eGFP (human (SupT1 cDNA or available template plasmids)) (UniProt Q00577).
T1 sequence: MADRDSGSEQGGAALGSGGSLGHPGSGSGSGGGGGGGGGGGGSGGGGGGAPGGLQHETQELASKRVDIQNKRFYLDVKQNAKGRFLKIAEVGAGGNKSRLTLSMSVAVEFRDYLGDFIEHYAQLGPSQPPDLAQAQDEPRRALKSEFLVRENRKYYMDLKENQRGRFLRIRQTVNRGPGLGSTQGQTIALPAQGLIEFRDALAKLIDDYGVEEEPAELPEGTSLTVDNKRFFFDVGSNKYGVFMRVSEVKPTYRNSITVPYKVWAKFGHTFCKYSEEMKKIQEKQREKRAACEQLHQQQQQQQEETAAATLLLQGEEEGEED
The test is described as follows: affinity purification with mass spectrometry.

In test [2] the target is T2, PURB fused to eGFP (human (SupT1 cDNA or available template plasmids)) (UniProt Q96QR8).
T2 sequence: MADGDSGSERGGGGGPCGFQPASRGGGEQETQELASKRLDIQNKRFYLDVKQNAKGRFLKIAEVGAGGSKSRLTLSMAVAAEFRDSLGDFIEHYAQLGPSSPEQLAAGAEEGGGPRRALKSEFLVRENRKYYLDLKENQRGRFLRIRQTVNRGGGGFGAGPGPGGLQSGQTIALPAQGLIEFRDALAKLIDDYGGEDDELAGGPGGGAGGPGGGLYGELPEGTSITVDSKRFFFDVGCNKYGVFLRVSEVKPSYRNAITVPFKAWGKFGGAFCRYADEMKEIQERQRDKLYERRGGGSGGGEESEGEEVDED
Briefly: affinity purification with mass spectrometry.

B1: Pur-beta (PURB) (protein, UniProt Q96QR8 1-312)
chain: MADGDSGSERGGGGGPCGFQPASRGGGEQETQELASKRLDIQNKRFYLDVKQNAKGRFLKIAEVGAGGSKSRLTLSMAVAAEFRDSLGDFIEHYAQLGPSSPEQLAAGAEEGGGPRRALKSEFLVRENRKYYLDLKENQRGRFLRIRQTVNRGGGGFGAGPGPGGLQSGQTIALPAQGLIEFRDALAKLIDDYGGEDDELAGGPGGGAGGPGGGLYGELPEGTSITVDSKRFFFDVGCNKYGVFLRVSEVKPSYRNAITVPFKAWGKFGGAFCRYADEMKEIQERQRDKLYERRGGGSGGGEESEGEEVDED
For the molecule B1, the binding result in test [1] is recorded as “binds”.

B2: transcriptional activator protein Pur-alpha (PURA) (protein, UniProt Q00577 1-322)
chain: MADRDSGSEQGGAALGSGGSLGHPGSGSGSGGGGGGGGGGGGSGGGGGGAPGGLQHETQELASKRVDIQNKRFYLDVKQNAKGRFLKIAEVGAGGNKSRLTLSMSVAVEFRDYLGDFIEHYAQLGPSQPPDLAQAQDEPRRALKSEFLVRENRKYYMDLKENQRGRFLRIRQTVNRGPGLGSTQGQTIALPAQGLIEFRDALAKLIDDYGVEEEPAELPEGTSLTVDNKRFFFDVGSNKYGVFMRVSEVKPTYRNSITVPYKVWAKFGHTFCKYSEEMKKIQEKQREKRAACEQLHQQQQQQQEETAAATLLLQGEEEGEED
Regarding B2, the binding result in test [2] was “binds”.

B3: MOV10 (protein, UniProt Q9HCE1 1-1003)
chain: MPSKFSCRQLREAGQCFESFLVVRGLDMETDRERLRTIYNRDFKISFGTPAPGFSSMLYGMKIANLAYVTKTRVRFFRLDRWADVRFPEKRRMKLGSDISKHHKSLLAKIFYDRAEYLHGKHGVDVEVQGPHEARDGQLLIRLDLNRKEVLTLRLRNGGTQSVTLTHLFPLCRTPQFAFYNEDQELPCPLGPGECYELHVHCKTSFVGYFPATVLWELLGPGESGSEGAGTFYIARFLAAVAHSPLAAQLKPMTPFKRTRITGNPVVTNRIEEGERPDRAKGYDLELSMALGTYYPPPRLRQLLPMLLQGTSIFTAPKEIAEIKAQLETALKWRNYEVKLRLLLHLEELQMEHDIRHYDLESVPMTWDPVDQNPRLLTLEVPGVTESRPSVLRGDHLFALLSSETHQEDPITYKGFVHKVELDRVKLSFSMSLLSRFVDGLTFKVNFTFNRQPLRVQHRALELTGRWLLWPMLFPVAPRDVPLLPSDVKLKLYDRSLESNPEQLQAMRHIVTGTTRPAPYIIFGPPGTGKTVTLVEAIKQVVKHLPKAHILACAPSNSGADLLCQRLRVHLPSSIYRLLAPSRDIRMVPEDIKPCCNWDAKKGEYVFPAKKKLQEYRVLITTLITAGRLVSAQFPIDHFTHIFIDEAGHCMEPESLVAIAGLMEVKETGDPGGQLVLAGDPRQLGPVLRSPLTQKHGLGYSLLERLLTYNSLYKKGPDGYDPQFITKLLRNYRSHPTILDIPNQLYYEGELQACADVVDRERFCRWAGLPRQGFPIIFHGVMGKDEREGNSPSFFNPEEAATVTSYLKLLLAPSSKKGKARLSPRSVGVISPYRKQVEKIRYCITKLDRELRGLDDIKDLKVGSVEEFQGQERSVILISTVRSSQSFVQLDLDFNLGFLKNPKRFNVAVTRAKALLIIVGNPLLLGHDPDWKVFLEFCKENGGYTGCPFPAKLDLQQGQNLLQGLSKLSPSTSGPHSHDYLPQEREGEGGLSLQVEPEWRNEL
B3: the binding entry in test [1] and in test [2] was “binds” in each case.
